Data: article PMC8106192
Results are given in words; binding and its absence hold for the method and conditions named. In cells and extracts the contact can be indirect. Some binding calls cover weakened binding; strength is not graded here.

The chains behind the UniProt entries cited, without tags or fusion partners.
UniProt P14635: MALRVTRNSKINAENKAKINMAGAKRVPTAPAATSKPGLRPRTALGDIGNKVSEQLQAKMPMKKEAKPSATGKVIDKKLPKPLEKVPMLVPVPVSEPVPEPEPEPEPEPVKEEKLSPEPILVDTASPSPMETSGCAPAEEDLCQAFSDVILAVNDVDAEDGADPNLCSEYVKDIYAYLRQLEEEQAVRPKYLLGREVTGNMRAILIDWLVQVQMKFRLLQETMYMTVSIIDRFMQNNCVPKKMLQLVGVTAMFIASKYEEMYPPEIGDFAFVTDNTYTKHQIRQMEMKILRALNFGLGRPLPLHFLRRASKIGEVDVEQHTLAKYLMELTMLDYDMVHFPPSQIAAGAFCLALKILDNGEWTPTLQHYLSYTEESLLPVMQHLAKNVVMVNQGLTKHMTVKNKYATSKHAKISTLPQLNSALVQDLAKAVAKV

Biological target: T1, Islet-1 (ISL1), endogenous in MGC803 cells (human (endogenous in MGC803)) (UniProt P61371)
T1 sequence: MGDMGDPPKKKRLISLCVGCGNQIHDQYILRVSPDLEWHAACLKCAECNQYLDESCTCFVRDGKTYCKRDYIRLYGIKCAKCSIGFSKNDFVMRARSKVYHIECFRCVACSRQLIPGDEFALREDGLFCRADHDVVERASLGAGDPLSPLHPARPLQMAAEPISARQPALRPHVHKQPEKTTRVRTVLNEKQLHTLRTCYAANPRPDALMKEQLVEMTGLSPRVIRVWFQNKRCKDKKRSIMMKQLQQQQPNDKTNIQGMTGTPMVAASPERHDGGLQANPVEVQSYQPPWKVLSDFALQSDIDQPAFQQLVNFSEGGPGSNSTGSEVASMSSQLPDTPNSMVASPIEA
Assay: co-IP; endogenous proteins; MGC803 lysate (RIPA lysis buffer with protease inhibitors) immunoprecipitated with antibodies against ISL1, CDK1 or cyclinB1, immunoblotting; IgG as control

binding: binds
Substance: cyclin B1, endogenous in MGC803 cells (from UniProt P14635 1-433)
